From paper doi:10.1101/2025.07.24.666230 come the findings set out here.

Protein sequences, listed by entry. Tags and fused reporters are not part of them. Lines headed by an entry give the natural chain unless they say otherwise; changes in a name come on top.
UniProt P11413, whole entry: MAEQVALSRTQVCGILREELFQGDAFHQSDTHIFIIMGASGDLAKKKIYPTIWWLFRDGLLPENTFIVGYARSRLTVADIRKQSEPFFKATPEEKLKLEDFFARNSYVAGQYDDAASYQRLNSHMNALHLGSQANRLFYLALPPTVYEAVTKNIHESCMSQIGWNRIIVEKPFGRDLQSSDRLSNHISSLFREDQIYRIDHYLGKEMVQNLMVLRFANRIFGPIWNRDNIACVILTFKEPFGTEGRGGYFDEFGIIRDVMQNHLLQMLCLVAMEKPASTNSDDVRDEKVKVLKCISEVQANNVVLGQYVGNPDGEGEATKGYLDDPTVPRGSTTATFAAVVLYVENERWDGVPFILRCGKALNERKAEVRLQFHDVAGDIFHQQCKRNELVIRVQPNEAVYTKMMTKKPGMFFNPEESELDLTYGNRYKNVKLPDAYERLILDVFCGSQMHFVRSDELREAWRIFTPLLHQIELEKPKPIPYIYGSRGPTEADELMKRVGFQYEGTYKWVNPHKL

Assay [1] addresses T1, NADK palmitoylation deficient mutant (3CS: C22S/C23S/C26S) (human) (UniProt O95544).
T1 sequence: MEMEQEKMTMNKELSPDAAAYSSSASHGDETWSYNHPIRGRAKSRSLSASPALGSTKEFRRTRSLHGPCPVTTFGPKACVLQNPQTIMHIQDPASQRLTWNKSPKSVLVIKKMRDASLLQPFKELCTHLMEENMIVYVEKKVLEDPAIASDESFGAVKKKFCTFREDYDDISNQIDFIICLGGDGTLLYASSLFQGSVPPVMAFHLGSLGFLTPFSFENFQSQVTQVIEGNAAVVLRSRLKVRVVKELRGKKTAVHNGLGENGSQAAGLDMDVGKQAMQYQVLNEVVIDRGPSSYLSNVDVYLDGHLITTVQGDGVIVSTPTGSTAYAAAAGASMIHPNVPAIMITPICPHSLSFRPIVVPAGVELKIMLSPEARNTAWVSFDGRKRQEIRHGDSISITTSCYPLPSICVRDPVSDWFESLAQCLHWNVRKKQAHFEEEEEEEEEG
Put plainly: co-IP.

In assay [2] the target is T2, His-NADK recombinant protein (pET-28a-NADK) (human) (UniProt O95544).
T2 sequence: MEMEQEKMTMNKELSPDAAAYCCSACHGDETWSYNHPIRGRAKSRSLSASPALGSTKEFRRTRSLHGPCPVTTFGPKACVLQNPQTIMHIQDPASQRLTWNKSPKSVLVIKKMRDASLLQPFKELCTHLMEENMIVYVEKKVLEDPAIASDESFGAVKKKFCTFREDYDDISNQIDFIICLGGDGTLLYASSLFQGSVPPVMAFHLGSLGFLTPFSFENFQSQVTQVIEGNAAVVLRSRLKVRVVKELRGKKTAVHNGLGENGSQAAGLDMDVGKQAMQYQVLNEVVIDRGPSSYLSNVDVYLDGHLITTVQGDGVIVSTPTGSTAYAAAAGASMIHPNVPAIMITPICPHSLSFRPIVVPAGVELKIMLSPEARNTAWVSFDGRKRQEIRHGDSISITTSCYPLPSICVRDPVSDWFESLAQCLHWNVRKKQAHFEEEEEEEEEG
Nature of the assay: pull-down.

The target in assay [3] is T3, HA-NADK (NAD kinase), wild type (human) (UniProt O95544).
T3 sequence: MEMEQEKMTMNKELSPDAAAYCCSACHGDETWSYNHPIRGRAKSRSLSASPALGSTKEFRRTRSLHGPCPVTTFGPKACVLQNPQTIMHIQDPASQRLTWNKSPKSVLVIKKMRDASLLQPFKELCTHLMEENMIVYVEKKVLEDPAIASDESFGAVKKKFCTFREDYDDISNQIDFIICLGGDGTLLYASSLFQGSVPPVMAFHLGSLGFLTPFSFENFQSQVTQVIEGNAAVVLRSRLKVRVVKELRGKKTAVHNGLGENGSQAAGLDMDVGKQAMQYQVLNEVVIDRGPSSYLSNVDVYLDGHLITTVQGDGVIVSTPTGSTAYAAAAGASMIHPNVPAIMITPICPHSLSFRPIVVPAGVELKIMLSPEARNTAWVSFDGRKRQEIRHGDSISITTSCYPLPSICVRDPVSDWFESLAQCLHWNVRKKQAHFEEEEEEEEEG
Put plainly: co-IP.

No constants are given. Whether binding was seen depends on the method and setting. In cells and extracts the contact can be indirect. Some binding calls cover weakened binding; strength is not graded here. For part of these data: Where a sequence is shown, tags or fusion partners need not be part of it.

As to “G6PD (from UniProt P11413 1-515) (enzyme)”, the binding result in assay [1] is listed as “binds”.

B1: Flag-ABHD17A (enzyme, UniProt Q96GS6 1-310)
chain: MNGLSLSELCCLFCCPPCPGRIAAKLAFLPPEATYSLVPEPEPGPGGAGAAPLGTLRASSGAPGRWKLHLTERADFQYSQRELDTIEVFPTKSARGNRVSCMYVRCVPGARYTVLFSHGNAVDLGQMSSFYIGLGSRLHCNIFSYDYSGYGASSGRPSERNLYADIDAAWQALRTRYGISPDSIILYGQSIGTVPTVDLASRYECAAVVLHSPLTSGMRVAFPDTKKTYCFDAFPNIEKVSKITSPVLIIHGTEDEVIDFSHGLALYERCPKAVEPLWVEGAGHNDIELYSQYLERLRRFISQELPSQRA
Consider B1, for which the binding result in assay [2] and in assay [3] was “binds” in each case.
